Hit rate of the full screen: of about 320,000 compounds, about 22,000 (6.9%) were called active. Inconclusive means that the source gave no clear call. Such entries were picked first, then a sample of the others. Calls come from the whole dose curve; as a rule, active = well fitted inhibition curve with a large enough effect; inconclusive = small, poorly fitted or top-dose-only effect, or another doubt; inactive = no such curve, though single readings can be large or run the other way. Potencies of inconclusive entries are doubtful fits and often do not repeat.
Experiment: Primary qHTS for delayed death inhibitors of the malarial parasite plastid, 96 hour incubation
Conditions: P. falciparum luciferase reporter growth; series mostly up to 28.7 µM
Procedure, shortened: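 Two parasite generations (96 h, 37 C, 5% CO2) of compound exposure in infected erythrocytes (0.05% parasitemia, 2% hematocrit). Luciferase-reporter P. falciparum; decreased luminescence indicates inhibited growth, aimed at apicoplast-acting delayed death.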
Potency is the fitted concentration of half-maximal effect.

Which Potency does the source give for `CS(=O)(=O)c1ccccc1-c1nc(-c2cccc(Cl)c2)no1` here?
Its Potency is “inactive”.

Which Potency does the source give for `COc1cc(Cl)c(C)cc1NC(C)C(=O)Nc1cc(C(F)(F)F)ccc1N1CCOCC1` (centres undefined) here?
The Potency was active: 0.0657 µM.

Which Potency does the source give for `CCCCNC(=O)[C@H]1C[C@H]1[C@@H](O)[C@H](CO)NC(=O)[C@H](CC(C)C)NC(=O)OC(C)(C)C` here?
Its Potency is “inactive”.

Which Potency does the source give for `C/C(=N\O)c1ccc2c(c1)OCCO2` here?
Its Potency is “inactive”.

Which Potency does the source give for `CC(NC(=O)c1cccnc1)C(c1cccs1)N1CCN(C)CC1` (centres undefined) here?
The Potency was “inactive”.

With `COc1ccc(C(=O)c2nc3ccccc3n2C(C)C)cc1` as the molecule, how does the Potency read?
The Potency was “inactive”.

Which Potency does the source give for `COc1cc(/C=C/C(=O)OCC(=O)Nc2c(C)n(C)n(-c3ccccc3)c2=O)ccc1OCC#N` here?
Its Potency is inconclusive: 0.0657 µM [inhibitor, full curve, poor fit].

With `Cc1cc(-c2c(C)[nH]n(-c3ccc(Cl)cc3)c2=O)n[nH]1` as the molecule, how does the Potency read?
The Potency was inconclusive: 0.147 µM [inhibitor, full curve, poor fit].

Which Potency does the source give for `CCOc1cnc(-c2c(-c3c(Cl)cccc3Cl)noc2C)o1` here?
The Potency was inconclusive: 18.5 µM [inhibitor, partial curve, poor fit].

Which Potency does the source give for `CC(C)(C)C(=O)N1CCN(c2ccc([N+](=O)[O-])cc2-n2cccc2)CC1` here?
The Potency was inconclusive: 10.4 µM [inhibitor, single point].

With `O=C(Nc1cc(S(=O)(=O)N2CCOCC2)ccc1N1CCCC1)C1COc2ccccc2O1` (centres undefined) as the molecule, how does the Potency read?
Its Potency is inconclusive: 5.86 µM [inhibitor, partial curve, poor fit].

With `COc1ccc(N(CC(=O)Nc2ccccc2C(=O)N2CCCC2)S(=O)(=O)c2ccccc2)cc1` as the molecule, how does the Potency read?
The Potency was “inactive”.

Which Potency does the source give for `CCOC(=O)C1CCN(c2cc3c(cc2NC(=O)c2ccccc2)n(C)c(=O)n3C)CC1` here?
Its Potency is inconclusive: 18.5 µM [inhibitor, single point].

Which Potency does the source give for `CCCCCCC(=O)O[C@H]1CC[C@H]2[C@@H]3CCC4CC(=O)C=C(C)[C@]4(C)[C@H]3CC[C@]12C` (some centres undefined) here?
Its Potency is active: 6.75 µM.

Which Potency does the source give for `O=C(Nc1ncc(Cc2cccc(C(F)(F)F)c2)s1)C1CCCO1` (centres undefined) here?
Its Potency is “inactive”.

Which Potency does the source give for `Cn1c(O)c(C=NCC2CCNCC2)c(=O)n(C)c1=O` here?
Its Potency is “inactive”.

With `Cc1cccc(N/N=C/c2ccccc2O)c1` as the molecule, how does the Potency read?
The Potency was inconclusive: 18.5 µM [inhibitor, single point].

For `Cc1ccc(OCC(=O)N/N=C\c2c(C)n(C)c3ccccc23)c([N+](=O)[O-])c1`, which Potency is on record?
Its Potency is inconclusive: 8.28 µM [inhibitor, partial curve, poor fit].

With `COc1ccc(NC(=O)CSc2nnc(C3CC3)n2-c2ccccc2)cc1` as the molecule, how does the Potency read?
Its Potency is inconclusive: 1.04 µM [inhibitor, full curve, poor fit].

Which Potency does the source give for `Cc1ccc(/C=C2\SC(N)=NC2=O)s1` here?
Its Potency is “inactive”.

Which Potency does the source give for `COc1ccc(CCNC(N)=S)cc1OC` here?
The Potency was active: 10.4 µM.

For `CCOc1cc(/C=N/NC(=O)c2ccc(CN3CCOCC3)cc2)ccc1OCc1ccccc1`, which Potency is on record?
The Potency was inconclusive: 10.4 µM [inhibitor, single point].

With `COc1ccc(-c2nc(CSCC(=O)N3CCN(C)CC3)c(C)o2)cc1OC` as the molecule, how does the Potency read?
The Potency was inconclusive: 1.65 µM [inhibitor, partial curve, poor fit].

For `Cc1cccc(N2CCN(C(=O)c3ccc4c(c3)NC(=O)C(CSCc3ccc(F)cc3)N4)CC2C)c1` (centres undefined), which Potency is on record?
Its Potency is “inactive”.

With `O=C(COc1ccccc1[N+](=O)[O-])N1CCN(c2ccccn2)CC1` as the molecule, how does the Potency read?
Its Potency is “inactive”.

With `COc1ccc(-c2cc(-c3cccs3)c(C#N)c(SCC(=O)NCc3ccccc3OC)n2)cc1` as the molecule, how does the Potency read?
Its Potency is active: 10.4 µM.

For `Cc1cc(C)cc(NC(=O)c2cccnc2)c1`, which Potency is on record?
Its Potency is “inactive”.

For `CC1CCCN(CCCNC(=O)c2ccc(NC(=O)C3=CSCCO3)cc2)C1` (centres undefined), which Potency is on record?
The Potency was inconclusive: 18.5 µM [inhibitor, single point].

For `COc1ccccc1CNC(=O)CN1C(=O)NC(c2ccccc2)(c2ccc(C)c(C)c2)C1=O` (centres undefined), which Potency is on record?
The Potency was active: 9.28 µM.

Which Potency does the source give for `Cc1ccc(S(=O)(=O)N2[C@@H](c3cccc(Cl)c3)C(C(=O)O)=CC[C@H]2c2cccc(Cl)c2)cc1` here?
The Potency was “inactive”.

Which Potency does the source give for `CCN1CCN(C(=S)NC(CC(=O)c2ccccc2)c2ccccc2)CC1` (centres undefined) here?
Its Potency is inconclusive: 11.7 µM [inhibitor, single point].

For `CCOC(=O)c1c(-c2ccccc2Cl)csc1NC(=O)CSc1nc(C)cc(=O)[nH]1`, which Potency is on record?
The Potency was active: 11.7 µM.

With `O=C1Nc2cc(C(=O)NCCCN3CCCC3)ccc2S/C1=C/c1ccccc1F` as the molecule, how does the Potency read?
Its Potency is active: 13.1 µM.

Which Potency does the source give for `CCCOc1ccccc1N/C(=N/c1nc(C)cc(C)n1)NC(=O)COc1ccc(OC)cc1` here?
The Potency was active: 4.65 µM.

With `Cc1cccc(OCCOC(=O)Nc2ccccc2)c1` as the molecule, how does the Potency read?
The Potency was “inactive”.

With `O=C(Nc1cccc([N+](=O)[O-])c1)C1COc2ccccc2O1` (centres undefined) as the molecule, how does the Potency read?
The Potency was inconclusive: 14.7 µM [inhibitor, partial curve, poor fit].

For `O=C1C(Cc2ccccc2)Nc2ncnc(N3CCOCC3)c2N1Cc1ccc(Br)cc1` (centres undefined), which Potency is on record?
The Potency was inconclusive: 13.1 µM [inhibitor, single point].

Which Potency does the source give for `COc1cc(OC)cc(C(=O)Nc2sc3c(c2C(N)=O)CCC3)c1` here?
The Potency was “inactive”.

Which Potency does the source give for `COc1cccc(CNC(=O)CCS(=O)(=O)Cc2ccc(C)cc2)c1` here?
Its Potency is “inactive”.

With `Cc1ccccc1OCCSc1nc2ncnc(N)c2[nH]1` as the molecule, how does the Potency read?
Its Potency is “inactive”.

With `COCCC(=O)N1CCCC(C(=O)c2ccc(C(F)(F)F)cc2)C1` (centres undefined) as the molecule, how does the Potency read?
Its Potency is active: 13.1 µM.

For `Cc1ccc(-c2c(C)nn3c(N4CCOCC4)cc(C)nc23)cc1`, which Potency is on record?
The Potency was inconclusive: 11.7 µM [inhibitor, single point].

With `CC(COc1ccccc1)N1CCC(CO)(CCc2ccccc2)CC1` (centres undefined) as the molecule, how does the Potency read?
The Potency was inconclusive: 13.1 µM [inhibitor, single point].

With `CC(=O)Nc1ccc(NC(=O)CCc2c(C)noc2C)cc1` as the molecule, how does the Potency read?
Its Potency is “inactive”.

Which Potency does the source give for `Cc1ccc(NC(=O)Cn2ncc3ccccc32)c(Cl)c1` here?
Its Potency is “inactive”.

For `CCOc1ccc(NC(=O)Nc2nnc(CC)s2)cc1`, which Potency is on record?
The Potency was inconclusive: 18.5 µM [inhibitor, single point].

Which Potency does the source give for `O=CN1CCN(C(=O)C(=O)c2cn(CC(=O)N3CCCCC3)c3ccccc23)CC1` here?
Its Potency is “inactive”.

Which Potency does the source give for `CCC(C)NC(=O)C1CCN(c2nc(OC)nc(OC)n2)CC1` (centres undefined) here?
Its Potency is inconclusive: 18.5 µM [inhibitor, single point].

With `O=C(CNc1ccccc1-c1ccccc1)NCc1ccccc1` as the molecule, how does the Potency read?
Its Potency is inconclusive: 18.5 µM [inhibitor, single point].

For `CC(NC(=O)[C@@H](C)NC(=O)[C@@H]1Cc2ccccc2CN1C(=O)OC(C)(C)C)c1ccccc1` (some centres undefined), which Potency is on record?
The Potency was inconclusive: 11.7 µM [inhibitor, single point].

With `Cc1ccnc(NC(=O)c2cc3ccccc3oc2=O)c1` as the molecule, how does the Potency read?
The Potency was “inactive”.

For `CCn1cc(CNc2nc3nonc3nc2N2CCCCC2)cn1`, which Potency is on record?
The Potency was inconclusive: 0.0026 µM [inhibitor, full curve, poor fit].

For `O=S(=O)(NCCc1ccncc1)c1ccc(S(=O)(=O)N2CCCCCC2)cc1`, which Potency is on record?
The Potency was inconclusive: 11.7 µM [inhibitor, single point].

For `COc1ccc(NC(=O)C(c2ccc(C)cc2)N(C)C(=O)CC2NC(=O)NC2=O)cc1` (centres undefined), which Potency is on record?
Its Potency is inconclusive: 14.7 µM [inhibitor, single point].

With `CN(C(=O)COC(=O)c1cc2ccccc2cc1O)c1c(N)n(Cc2ccccc2)c(=O)[nH]c1=O` as the molecule, how does the Potency read?
Its Potency is “inactive”.

Which Potency does the source give for `CC(=O)c1ccc(N2CCN(C(=O)CCS(=O)(=O)c3ccc4c(c3)NC(=O)CS4)CC2)cc1` here?
The Potency was inconclusive: 4.65 µM [inhibitor, partial curve, poor fit].

With `CCC1CCCCN1CCCNC(=O)c1ccc(CS(=O)(=O)c2ccccc2C)o1` (centres undefined) as the molecule, how does the Potency read?
Its Potency is “inactive”.

With `Cc1cccc(C)c1OCCSc1nc2ccccc2n1CC(=O)O` as the molecule, how does the Potency read?
Its Potency is active: 11.7 µM.

With `Cc1ccc(Sc2ccc([N+](=O)[O-])cc2[N+](=O)[O-])nc1` as the molecule, how does the Potency read?
Its Potency is inconclusive: 18.5 µM [inhibitor, single point].

Which Potency does the source give for `COc1ccc(CCNC(=S)Nc2cccc(C)c2C)cc1` here?
Its Potency is inconclusive: 11.7 µM [inhibitor, partial curve, poor fit].

With `CC(C)(C)NC(=O)CN(Cc1cccs1)C(=O)C1COc2ccccc2O1` (centres undefined) as the molecule, how does the Potency read?
The Potency was inconclusive: 0.928 µM [inhibitor, full curve].

Which Potency does the source give for `C=CCN(Cc1ccco1)S(=O)(=O)c1ccc(Cl)cc1` here?
The Potency was “inactive”.

For `CCOC(=O)c1c(C)[nH]c(C(=O)OCC(=O)Nc2cc(C)nn2-c2ccccc2)c1C`, which Potency is on record?
The Potency was inconclusive: 8.28 µM [inhibitor, partial curve, poor fit].

With `CCN(CC)c1ccc(/C=N/Nc2nc(C)cc(=O)[nH]2)cc1` as the molecule, how does the Potency read?
The Potency was inconclusive: 10.4 µM [inhibitor, single point].

With `CC(C)(C)N(Cc1ccccc1)C(=O)CCc1ccccc1` as the molecule, how does the Potency read?
Its Potency is active: 13.1 µM.

Which Potency does the source give for `O=C(c1ccc(Cl)c(S(=O)(=O)N2CCCCCC2)c1)N1CCCC1` here?
The Potency was “inactive”.

Which Potency does the source give for `CC(=O)Nc1ccc(S(=O)(=O)N(C)CC(=O)OCC(=O)N2CCN(C(=O)c3ccco3)CC2)cc1` here?
Its Potency is “inactive”.

Which Potency does the source give for `O=C(NC1CCCCCC1)c1ccc(=O)n(Cc2ccccc2)n1` here?
The Potency was inconclusive: 18.5 µM [inhibitor, single point].

For `CC(=O)Nc1ccc(S(=O)(=O)NNC(=O)COc2ccc(C(C)(C)C)cc2)cc1`, which Potency is on record?
The Potency was inconclusive: 13.1 µM [inhibitor, partial curve, poor fit].

For `CCCN(C(=O)c1ccc(S(=O)(=O)N2CCCC2)cc1)C1CCS(=O)(=O)C1` (centres undefined), which Potency is on record?
The Potency was “inactive”.

Which Potency does the source give for `CCOC(=O)c1c(NC(=O)C2=C(C)NC(=S)NC2c2ccc(CC)cc2)sc(C)c1C` (centres undefined) here?
Its Potency is inconclusive: 18.5 µM [inhibitor, single point].

With `CN(c1ccccc1)S(=O)(=O)c1cccc(C(=O)OCC(=O)NCc2ccco2)c1` as the molecule, how does the Potency read?
The Potency was inconclusive: 18.5 µM [inhibitor, single point].

Which Potency does the source give for `Cc1c(C)n(-c2ccccc2)c2ncnc(NCCCN(C)C)c12` here?
The Potency was “inactive”.

Which Potency does the source give for `CC1=CC(C)(C)NC(=S)N1c1ccccc1C` here?
Its Potency is inconclusive: 18.5 µM [inhibitor, single point].

— PubChem BioAssay AID504834 (National Center for Advancing Translational Sciences (NCATS), 2011)
